Results taken from article PMC6155021, “Ancient and modern anticonvulsants act synergistically in a KCNQ potassium channel binding pocket” (Nature Communications, 2018).

Target: KCNQ1 (Homo sapiens, UniProt P51787)
Details: IVA 500 µM
Text: cRNA transcripts encoding human KCNA1, KCNQ1, KCNQ2, KCNQ3, KCNQ4, or KCNQ5 were generated by in vitro transcription using the T7 polymerase message machine kit (Thermo Fisher Scientific), after vector linearization, from cDNA sub-cloned into plasmids incorporating X. laevis β-globin 5′ and 3′ UTRs flanking the coding region to enhance translation and cRNA stability. cRNA was quantified by spectrophotometry. Mutant cDNAs were generated by site-directed mutagenesis using a QuikChange kit according to manufacturer’s protocol (Stratagene, San Diego, CA) and corresponding cRNAs prepared as above. Defolliculated stage V and VI X. laevis oocytes (Ecocyte Bioscience, Austin, TX) were injected with Kv channel α subunit cRNAs (10 ng total per oocyte). Oocytes were incubated at 16 °C in Barth’s saline solution (Ecocyte) containing penicillin and streptomycin, with daily washing, for 3–5 days prior to two-electrode voltage-clamp (TEVC) recording.
Oocytes were placed in a small-volume oocyte bath (Warner) and viewed with a dissection microscope. Chemicals were sourced from Sigma. […] Currents were recorded in response to pulses between −80 and +40 mV at 20 mV intervals, or a single pulse to +40 mV, from a holding potential of −80 mV, to yield current–voltage relationships, current magnitude, and for quantifying activation rate. […]

In the case of `CC(C)CC(=O)O` [IVA, isovaleric acid], the “sensitivity of KCNQ1” value was “insensitive”.
